Reference: doi:10.1101/2024.02.15.580496 (bioRxiv, 2024)
These are yes or no findings as the source states them, for the method shown. In cells and extracts the contact can be indirect. These calls come from enrichment with a bait or labelling near it, and not all partners need be listed.

The chains behind the UniProt entries cited, without tags or fusion partners.
UniProt Q9FIE3: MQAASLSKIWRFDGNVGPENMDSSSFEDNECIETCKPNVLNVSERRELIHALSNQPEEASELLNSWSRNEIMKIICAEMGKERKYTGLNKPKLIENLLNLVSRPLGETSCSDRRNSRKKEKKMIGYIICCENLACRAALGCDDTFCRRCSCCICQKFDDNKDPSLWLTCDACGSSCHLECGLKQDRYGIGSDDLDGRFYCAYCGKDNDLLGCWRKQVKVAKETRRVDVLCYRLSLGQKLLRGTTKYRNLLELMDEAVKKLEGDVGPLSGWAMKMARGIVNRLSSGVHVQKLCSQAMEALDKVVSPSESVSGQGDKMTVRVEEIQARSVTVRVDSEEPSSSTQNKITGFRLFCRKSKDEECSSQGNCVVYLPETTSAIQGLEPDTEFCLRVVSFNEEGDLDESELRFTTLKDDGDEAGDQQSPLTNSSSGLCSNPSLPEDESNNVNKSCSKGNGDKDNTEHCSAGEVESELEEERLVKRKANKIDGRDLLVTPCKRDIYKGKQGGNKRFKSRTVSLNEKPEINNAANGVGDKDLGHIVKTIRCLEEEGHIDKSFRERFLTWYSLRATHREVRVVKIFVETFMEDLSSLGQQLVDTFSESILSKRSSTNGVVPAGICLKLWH
UniProt O22467: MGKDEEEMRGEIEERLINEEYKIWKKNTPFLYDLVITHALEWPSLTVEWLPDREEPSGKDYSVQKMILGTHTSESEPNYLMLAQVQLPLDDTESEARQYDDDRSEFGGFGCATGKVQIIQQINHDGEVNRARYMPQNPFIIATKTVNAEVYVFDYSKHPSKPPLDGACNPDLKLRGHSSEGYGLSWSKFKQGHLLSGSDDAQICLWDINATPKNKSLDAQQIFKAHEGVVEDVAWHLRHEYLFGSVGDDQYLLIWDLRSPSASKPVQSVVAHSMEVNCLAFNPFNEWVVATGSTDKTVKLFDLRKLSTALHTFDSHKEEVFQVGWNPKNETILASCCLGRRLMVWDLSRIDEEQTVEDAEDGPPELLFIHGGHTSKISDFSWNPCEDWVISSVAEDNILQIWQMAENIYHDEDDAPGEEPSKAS

B1: VRN5 (endogenous) (protein, UniProt Q9LHF5 1-602)
chain: MDSSSTKSKISHSRKTNKKSNKKHESNGKQQQQQDVDGGGGCLRSSWICKNASCRANVPKEDSFCKRCSCCVCHNFDENKDPSLWLVCEPEKSDDVEFCGLSCHIECAFREVKVGVIALGNLMKLDGCFCCYSCGKVSQILGCWKKQLVAAKEARRRDGLCYRIDLGYRLLNGTSRFSELHEIVRAAKSMLEDEVGPLDGPTARTDRGIVSRLPVAANVQELCTSAIKKAGELSANAGRDLVPAACRFHFEDIAPKQVTLRLIELPSAVEYDVKGYKLWYFKKGEMPEDDLFVDCSRTERRMVISDLEPCTEYTFRVVSYTEAGIFGHSNAMCFTKSVEILKPVDGKEKRTIDLVGNAQPSDREEKSSISSRFQIGQLGKYVQLAEAQEEGLLEAFYNVDTEKICEPPEEELPPRRPHGFDLNVVSVPDLNEEFTPPDSSGGEDNGVPLNSLAEADGGDHDDNCDDAVSNGRRKNNNDCLVISDGSGDDTGFDFLMTRKRKAISDSNDSENHECDSSSIDDTLEKCVKVIRWLEREGHIKTTFRVRFLTWFSMSSTAQEQSVVSTFVQTLEDDPGSLAGQLVDAFTDVVSTKRPNNGVMTSH
B2: VRN2 (PRC2 core subunit) (protein, UniProt Q8W5B1 1-440)
chain: MCRQNCRAKSSPEEVISTDENLLIYCKPVRLYNIFHLRSLGNPSFLPRCLNYKIGAKRKRKSRSTGMVVFNYKDCNNTLQRTEVREDCSCPFCSMLCGSFKGLQFHLNSSHDLFEFEFKLLEEYQTVNVSVKLNSFIFEEEGSDDDKFEPFSLCSKPRKRRQRGGRNNTRRLKVCFLPLDSPSLANGTENGIALLNDGNRGLGYPEATELAGQFEMTSNIPPAIAHSSLDAGAKVILTTEAVVPATKTRKLSAERSEARSHLLLQKRQFYHSHRVQPMALEQVMSDRDSEDEVDDDVADFEDRQMLDDFVDVNKDEKQFMHLWNSFVRKQRVIADGHISWACEVFSRFYEKELHCYSSLFWCWRLFLIKLWNHGLVDSATINNCNTILENCRNTSVTNNNNNSVDHPSDSNTNNNNIVDHPNDIKNKNNVDNKDNNSRDK
B3: VEL1 (endogenous) (protein, UniProt Q9SUM4 1-714)
chain: MDSSLDGAAGDSSKCSEMSVDEKRQLVYELSKQSHLAAEVLQAWSRQEILQILCAEMGKERKYTGLTKVKIIETLLKIVSEKNSGECEGKKRDSDCLPIQRNTKRQRKVDNPSRYVIPATNIVTSNNASGSCSSVNTKGESTTIYCKNLACRAVLRQEDSFCRRCSCCICRKYDDNKDPSLWLTCSSDPPFEGESCGFSCHLECAFNTEKSGLGKDKQSEGCCFYCVSCGKANSLLECWKKQLTIAKETRRVEVLCYRLFLVQKLLKSSTKYRNLCEVVDEAVKTLEADVGPLTGLPMKMGRGIVNRLHSGPDVQKLCSSALESLETIATTPPDVAALPSPRSSKMQQDCSYVLSNEISADTATTGSTKIRFEDVNATSLTVVLASNEIPSPPNIVHYSIWHRKVPEKDYPEKSTCTLFIPNTRFVVSGLAPASEYCFKVVSYSGTREMGVDEINVLTRSAEEGANCSSAVERSVSPLTNCSTLSSNPSSVEAESNNDYIVPKKPSSKNEDNNSPSVDESAAKRMKRTTDSDIVQIEKDVEQIVLLDDEEQEAVLDKTESETPVVVTTKSLVGNRNSSDASLPITPFRSDEIKNRQARIEISMKDNCNNGDHSANGGTESGLEHCVKIIRQLECSGHIDKNFRQKFLTWYSLRATSQEIRVVKIFIDTFIDDPMALAEQLIDTFDDRVSIKRSAVGGSGASAVVPSGFCMKLWH
B4: FIE (PRC2 core subunit) (protein, UniProt Q9LT47 1-369)
chain: MSKITLGNESIVGSLTPSNKKSYKVTNRIQEGKKPLYAVVFNFLDARFFDVFVTAGGNRITLYNCLGDGAISALQSYADEDKEESFYTVSWACGVNGNPYVAAGGVKGIIRVIDVNSETIHKSLVGHGDSVNEIRTQPLKPQLVITASKDESVRLWNVETGICILIFAGAGGHRYEVLSVDFHPSDIYRFASCGMDTTIKIWSMKEFWTYVEKSFTWTDDPSKFPTKFVQFPVFTASIHTNYVDCNRWFGDFILSKSVDNEILLWEPQLKENSPGEGASDVLLRYPVPMCDIWFIKFSCDLHLSSVAIGNQEGKVYVWDLKSCPPVLITKLSHNQSKSVIRQTAMSVDGSTILACCEDGTIWRWDVITK
B5: CURLY LEAF (CLF), PRC2 methyltransferase (protein, UniProt P93831 1-902)
chain: MASEASPSSSATRSEPPKDSPAEERGPASKEVSEVIESLKKKLAADRCISIKKRIDENKKNLFAITQSFMRSSMERGGSCKDGSDLLVKRQRDSPGMKSGIDESNNNRYVEDGPASSGMVQGSSVPVKISLRPIKMPDIKRLSPYTTWVFLDRNQRMTEDQSVVGRRRIYYDQTGGEALICSDSEEEAIDDEEEKRDFLEPEDYIIRMTLEQLGLSDSVLAELASFLSRSTSEIKARHGVLMKEKEVSESGDNQAESSLLNKDMEGALDSFDNLFCRRCLVFDCRLHGCSQDLIFPAEKPAPWCPPVDENLTCGANCYKTLLKSGRFPGYGTIEGKTGTSSDGAGTKTTPTKFSSKLNGRKPKTFPSESASSNEKCALETSDSENGLQQDTNSDKVSSSPKVKGSGRRVGRKRNKNRVAERVPRKTQKRQKKTEASDSDSIASGSCSPSDAKHKDNEDATSSSQKHVKSGNSGKSRKNGTPAEVSNNSVKDDVPVCQSNEVASELDAPGSDESLRKEEFMGETVSRGRLATNKLWRPLEKSLFDKGVEIFGMNSCLIARNLLSGFKSCWEVFQYMTCSENKASFFGGDGLNPDGSSKFDINGNMVNNQVRRRSRFLRRRGKVRRLKYTWKSAAYHSIRKRITEKKDQPCRQFNPCNCKIACGKECPCLLNGTCCEKYCGCPKSCKNRFRGCHCAKSQCRSRQCPCFAADRECDPDVCRNCWVIGGDGSLGVPSQRGDNYECRNMKLLLKQQQRVLLGISDVSGWGAFLKNSVSKHEYLGEYTGELISHKEADKRGKIYDRENCSFLFNLNDQFVLDAYRKGDKLKFANHSPEPNCYAKVIMVAGDHRVGIFAKERILAGEELFYDYRYEPDRAPAWAKKPEAPGSKKDENVTPSVGRPKKLA
B6: SWN (PRC2 core subunit) (protein, UniProt Q9ZSM8 1-856)
chain: MVTDDSNSSGRIKSHVDDDDDGEEEEDRLEGLENRLSELKRKIQGERVRSIKEKFEANRKKVDAHVSPFSSAASSRATAEDNGNSNMLSSRMRMPLCKLNGFSHGVGDRDYVPTKDVISASVKLPIAERIPPYTTWIFLDRNQRMAEDQSVVGRRQIYYEQHGGETLICSDSEEEPEPEEEKREFSEGEDSIIWLIGQEYGMGEEVQDALCQLLSVDASDILERYNELKLKDKQNTEEFSNSGFKLGISLEKGLGAALDSFDNLFCRRCLVFDCRLHGCSQPLISASEKQPYWSDYEGDRKPCSKHCYLQLKAVREVPETCSNFASKAEEKASEEECSKAVSSDVPHAAASGVSLQVEKTDIGIKNVDSSSGVEQEHGIRGKREVPILKDSNDLPNLSNKKQKTAASDTKMSFVNSVPSLDQALDSTKGDQGGTTDNKVNRDSEADAKEVGEPIPDNSVHDGGSSICQPHHGSGNGAIIIAEMSETSRPSTEWNPIEKDLYLKGVEIFGRNSCLIARNLLSGLKTCLDVSNYMRENEVSVFRRSSTPNLLLDDGRTDPGNDNDEVPPRTRLFRRKGKTRKLKYSTKSAGHPSVWKRIAGGKNQSCKQYTPCGCLSMCGKDCPCLTNETCCEKYCGCSKSCKNRFRGCHCAKSQCRSRQCPCFAAGRECDPDVCRNCWVSCGDGSLGEAPRRGEGQCGNMRLLLRQQQRILLGKSDVAGWGAFLKNSVSKNEYLGEYTGELISHHEADKRGKIYDRANSSFLFDLNDQYVLDAQRKGDKLKFANHSAKPNCYAKVMFVAGDHRVGIFANERIEASEELFYDYRYGPDQAPVWARKPEGSKKDDSAITHRRARKHQSH

Assays:
[1] = target: T1, VRN5-SYFP2 wild-type (pVRN5::VRN5-SYFP2) (Arabidopsis thaliana) (UniProt Q9LHF5); assay: affinity purification with mass spectrometry
T1 sequence: B1 chain

[2] = target: VIN3-GFP wild-type (pVIN3:VIN3-eGFP) (Arabidopsis thaliana) (UniProt Q9FIE3); assay: affinity purification with mass spectrometry

Molecule	binding [1]	binding [2]
VIN3 (endogenous) (from UniProt Q9FIE3 1-620)	binds	–
MSI1 (PRC2 core subunit) (from UniProt O22467 1-424)	binds	–
B1	–	binds
B2	binds	–
B3	binds	binds
B4	binds	–
B5	binds	–
B6	binds	–
